This experiment deals with GABPB (human (endogenous in K1)). The experiment in a line: co-IP; endogenous proteins in K1 cell lysate (RIPA buffer with protease and phosphatase inhibitors); 0.5-1.0 ug of the indicated antibody for 1 h at 4 °C, Protein A/G Plus-Agarose overnight at 4 °C, four washes with lysis buffer, western blot.

No constants are given. Whether binding was seen depends on the method and setting. Binding seen in cells or lysates may run through a third protein. Binding calls can cover weak binding; strength is not graded here.

B1: GABPA (protein, UniProt Q06546 1-454)
chain: MTKREAEELIEIEIDGTEKAECTEESIVEQTYAPAECVSQAIDINEPIGNLKKLLEPRLQCSLDAHEICLQDIQLDPERSLFDQGVKTDGTVQLSVQVISYQGIEPKLNILEIVKPADTVEVVIDPDAHHAESEAHLVEEAQVITLDGTKHITTISDETSEQVTRWAAALEGYRKEQERLGIPYDPIQWSTDQVLHWVVWVMKEFSMTDIDLTTLNISGRELCSLNQEDFFQRVPRGEILWSHLELLRKYVLASQEQQMNEIVTIDQPVQIIPASVQSATPTTIKVINSSAKAAKVQRAPRISGEDRSSPGNRTGNNGQIQLWQFLLELLTDKDARDCISWVGDEGEFKLNQPELVAQKWGQRKNKPTMNYEKLSRALRYYYDGDMICKVQGKRFVYKFVCDLKTLIGYSAAELNRLVTECEQKKLAKMQLHGIAQPVTAVALATASLQTEKDN
As to B1, the binding result is listed as “binds”.

Source of the values: PMC5805723.
